Results: patent US8329166B2, “Pluripotent olfactory stem cells” (Academia Sinica, priority 2005, dated 2012)
At least one compound was matched to its structure with a doubt left.

Test system: SDF-1
Assay: Western blot of SDF-1 in hypoxia-reoxygenation treated cells pre-treated with pathway inhibitors
Assay type: cell-based, human
Conditions: pre-treatment 10 nM
Method: Western blot was also performed to examine the expression of SDF-1, G-CSF, CXCR4, and G-CSF-R in the above-described cells that were treated with hypoxia-reoxygenation. Briefly, cells were placed in a hypoxic chamber (Bug Box, Ruskinn Technology, UK) at 37° C. for 12 hours. The chamber was continuously flushed with 95% N2-5% CO2 to maintain a gas phase PO2 of <1 mmHg (OM-14 oxygen monitor; SensorMedics Corporation, Yorba Linda, Calif.). After each hypoxic treatment, the cells were returned to a 37° C. normoxic incubator (95% air-5% CO2) for different time durations (30 minutes, 1 hour, 4 hours, 12 hours, 24 hours, and 48 hours) of reoxygenation. Cell samples were then collected at each time point and stored at -80° C. For Western blot, the samples were lysed in a buffer containing 320 mM sucrose, 5 mM HEPES, 1 μg/ml leupeptin, 1 μg/ml aprotinin. The resulting lysate were centrifuged at 13,000 g for 15 minutes. The pellet was resuspended in a sample buffer (62.5 mM Tris-HCl, 10% glycerol, 2% SDS, 0.1% bromophenol blue, and 50 mM DTT) and subjected to SDS-polyacrylamide gel (4-12%) electrophoresis. […] The intensity of each detected band was quantified using a Kodak Digital Science 1D Image Analysis System (Eastman Kodak, Rochester, N.Y.). […]

Row | SMILES | expression of SDF-1
1 | O=c1cc(N2CCOCC2)oc2c(-c3ccccc3)cccc12 [LY294002] | stayed at the control level
2 | COC[C@H]1OC(=O)c2coc3c2[C@@]1(C)C1=C(C3=O)[C@@H]2CCC(=O)[C@@]2(C)C[C@H]1OC(C)=O [wortmannin] | stayed at the control level
